Measurements as given in article PMC11423089.
These are yes or no findings as the source states them, for the method shown. For some assays here: Binding seen in cells or lysates may run through a third protein. Some binding calls cover weakened binding; strength is not graded here. For some assays here: Tags and fused reporters may be left off the sequences shown.

By UniProt entry, the sequences of proteins in these tests, tags left out.
UniProt Q96RR4: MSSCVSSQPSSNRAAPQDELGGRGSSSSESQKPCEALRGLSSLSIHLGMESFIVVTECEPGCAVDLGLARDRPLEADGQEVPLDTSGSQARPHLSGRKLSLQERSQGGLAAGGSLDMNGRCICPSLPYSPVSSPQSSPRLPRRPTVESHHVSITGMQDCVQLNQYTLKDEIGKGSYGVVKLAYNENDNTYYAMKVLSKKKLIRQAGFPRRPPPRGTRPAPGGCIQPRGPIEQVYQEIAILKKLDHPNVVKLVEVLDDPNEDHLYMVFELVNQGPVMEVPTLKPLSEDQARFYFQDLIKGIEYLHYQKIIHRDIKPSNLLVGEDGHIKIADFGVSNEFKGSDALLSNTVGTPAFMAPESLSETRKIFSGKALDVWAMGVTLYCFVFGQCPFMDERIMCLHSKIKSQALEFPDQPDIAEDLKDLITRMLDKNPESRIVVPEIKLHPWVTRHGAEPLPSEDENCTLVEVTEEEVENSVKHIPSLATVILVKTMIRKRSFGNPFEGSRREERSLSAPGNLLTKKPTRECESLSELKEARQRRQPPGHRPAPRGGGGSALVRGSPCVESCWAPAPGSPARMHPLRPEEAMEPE

Assays:
[1] = molecular target: T1, TOR Signaling Pathway Regulator‐Like (TIPRL) (human (endogenous in A549)) (UniProt O75663); assay: co-IP; endogenous proteins from A549 lysates (lysis buffer A: 20 mM HEPES pH 7.5, 150 mM NaCl, 1 mM EDTA, 2 mM EGTA, 1% Triton X-100, 10% glycerol); 1 µg antibody against TIPRL, CaMKK2 or PP2Ac, or normal IgG, protein G sepharose, overnight at 4 °C; for CaMKK2 with PP2Ac the cells were transfected with siTIPRL or control siRNA, or overexpressed TIPRL
T1 sequence: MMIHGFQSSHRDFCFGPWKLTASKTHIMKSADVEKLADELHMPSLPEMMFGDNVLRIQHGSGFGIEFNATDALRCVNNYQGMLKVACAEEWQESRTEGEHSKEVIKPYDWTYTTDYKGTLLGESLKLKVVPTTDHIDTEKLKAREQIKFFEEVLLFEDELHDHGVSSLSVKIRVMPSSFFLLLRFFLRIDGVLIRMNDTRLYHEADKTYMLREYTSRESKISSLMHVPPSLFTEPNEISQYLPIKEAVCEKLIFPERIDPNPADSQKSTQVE

[2] = molecular target: T2, recombinant TIPRL (GST pull‐down) (UniProt O75663); assay: pull-down; in vitro GST pull-down of recombinant TIPRL and CaMKK2; which protein carried GST is not stated; both purified
T2 sequence: T1 sequence

binding [1]	binding [2]	Substance
binds		calcium/calmodulin‐dependent protein kinase kinase 2 (CaMKK2) (from UniProt Q96RR4 1-588) (enzyme)
	binds	recombinant CaMKK2 (GST pull‐down) (from UniProt Q96RR4 1-588) (enzyme)
